{"source": "patent EP0207497A2", "about": "“Quinolonecarboxylic acid derivative and process for its preparation” (KYORIN PHARMACEUTICAL CO., LTD., priority 1985, dated 1987)", "test_system": "F. varium KYA 8501", "assay": "Antibacterial spectrum, MIC determination (method of Japan Society of Chemotherapy)", "type": "cell-based", "settings": "Fusobacterium varium, KYA8501"}
{"smiles": "O=C(O)c1cn(C2CC2)c2cc(N3CCNCC3)c(F)cc2c1=O", "note": "[CPFX, ciprofloxacin, reference compound]", "values": [{"measurement": "MIC", "value": "> 12.5", "unit": "µg/mL"}]}
